Assay results: US20240374492A1, “A SUNSCREEN COMPOSITION COMPRISING AVOBENZONE AND A METHOD FOR PHOTOSTABILIZATION” (ISP Investments LLC, priority 2021, published 2024)

Experiment: Evaluation of odor of solvents by panel
Design: key: good (acceptable); bad (not acceptable)
Conditions: panel of 13 male and female members; score given by highest number of panelists

Structure (SMILES) | Odor of the composition
O=C(OCCC1CCCCC1)c1ccccc1 [2-Cyclohexylethyl Benzoate] | good
Cc1ccccc1COC(=O)c1ccccc1 [o-Methylbenzyl Benzoate] | bad
CCc1ccc(C(=O)OCc2ccccc2)cc1 [Benzyl 4-Ethylbenzoate] | bad
O=C(OC1CCCCC1)c1ccccc1 [Cyclohexyl Benzoate] | good
O=C(OCc1ccccc1)c1ccccc1O [Benzyl Salicylate] | good
CCN(CC)C(=O)c1cccc(C)c1 [N,N-Diethyl m-toluamide] | good
CCC(=O)OCCc1ccccc1 [2-Phenylethyl Propionate] | good
Cc1ccc(C(=O)OC(C)c2ccccc2)cc1 (stereo not shown) [1-Phenylethyl p-toluate] | bad
CCCCCC(=O)OCCc1ccccc1 [2-Phenylethyl Hexanoate] | bad
O=C(OCCCc1ccccc1)c1ccccc1 [3-Phenylpropyl Benzoate] | bad
CCC(OC(=O)c1ccccc1)c1ccccc1 (stereo not shown) [1-Phenylpropyl Benzoate] | bad
Cc1ccccc1C(=O)OCc1ccccc1 [Benzyl o-toluate] | good
O=C(OCCc1ccccc1)c1ccccc1 [Phenethyl benzoate] | good
Cc1ccccc1C(=O)OCCc1ccccc1 [2-Phenylethyl o-toluate] | good
O=C(OCc1ccccc1)c1ccccc1 [Benzyl Benzoate] | bad
O=C(OCCc1ccccc1)C1CCCCC1 [2-Phenylethyl Cyclohexanoate] | bad
Cc1cccc(COC(=O)c2ccccc2)c1 [m-Methylbenzyl Benzoate] | bad
CC(COC(=O)c1ccccc1)OC(=O)c1ccccc1 (stereo not shown) [Propylene glycol Dibenzoate] | good
CC(CCOC(=O)c1ccccc1)OC(=O)c1ccccc1 (stereo not shown) [1,3-Butylene glycol Dibenzoate] | good
Cc1ccccc1C(=O)OC1CCCCC1 [Cyclohexyl o-toluate] | good
CC(C)(C)c1ccc(C(=O)OCc2ccccc2)cc1 [Benzyl 4-tert-Butylbenzoate] | bad
Cc1cccc(C(=O)OCc2ccccc2)c1 [Benzyl m-toluate] | bad
